Measured values reported in PubChem BioAssay (NCATS).
Some of the results follow. Further columns of the screen follow, without active or inactive calls. For some of these results: The list favours compounds with an active or inconclusive main result. Potencies come from curve fits of mixed quality, noted in brackets.

Amino acid sequences for entries named in this document (tags omitted). A change or cut given only in a name is not applied to a line headed by its entry.
UniProt P21964: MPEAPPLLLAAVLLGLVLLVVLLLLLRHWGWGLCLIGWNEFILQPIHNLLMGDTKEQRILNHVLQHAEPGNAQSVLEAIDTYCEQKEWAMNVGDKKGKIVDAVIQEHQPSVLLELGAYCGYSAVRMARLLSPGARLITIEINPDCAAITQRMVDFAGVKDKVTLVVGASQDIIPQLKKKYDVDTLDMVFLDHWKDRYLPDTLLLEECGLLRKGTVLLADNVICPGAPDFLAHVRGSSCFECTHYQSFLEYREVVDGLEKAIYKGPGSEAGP
UniProt P50135: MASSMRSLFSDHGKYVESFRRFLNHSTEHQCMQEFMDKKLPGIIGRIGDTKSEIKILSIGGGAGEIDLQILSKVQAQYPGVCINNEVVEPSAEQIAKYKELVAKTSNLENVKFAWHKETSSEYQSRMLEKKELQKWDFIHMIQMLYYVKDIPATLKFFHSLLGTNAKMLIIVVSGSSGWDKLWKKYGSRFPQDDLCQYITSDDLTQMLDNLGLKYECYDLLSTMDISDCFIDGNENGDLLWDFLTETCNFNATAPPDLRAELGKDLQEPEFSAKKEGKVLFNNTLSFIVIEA
UniProt P40261: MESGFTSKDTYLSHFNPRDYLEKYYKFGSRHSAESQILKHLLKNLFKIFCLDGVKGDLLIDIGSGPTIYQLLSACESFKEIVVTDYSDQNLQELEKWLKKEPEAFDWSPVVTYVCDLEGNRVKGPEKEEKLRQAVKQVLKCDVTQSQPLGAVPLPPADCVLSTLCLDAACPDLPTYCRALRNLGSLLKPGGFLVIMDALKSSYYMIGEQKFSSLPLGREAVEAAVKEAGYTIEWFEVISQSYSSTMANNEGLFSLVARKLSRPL
UniProt P11086: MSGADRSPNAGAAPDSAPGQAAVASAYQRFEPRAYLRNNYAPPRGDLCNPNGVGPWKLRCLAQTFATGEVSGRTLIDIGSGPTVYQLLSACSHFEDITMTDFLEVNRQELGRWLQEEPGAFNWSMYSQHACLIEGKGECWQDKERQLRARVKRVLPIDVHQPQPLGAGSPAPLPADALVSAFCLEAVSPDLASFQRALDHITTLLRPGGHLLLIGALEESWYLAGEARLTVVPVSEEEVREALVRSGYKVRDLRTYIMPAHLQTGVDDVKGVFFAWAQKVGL

Key:
[1] = A High-Content qHTS Against Drug Library for the Identification of Small Molecules that Inhibit DYT1 Early Onset Primary Dystonia-Associated Cell Pathology (AID 1645839); settings: HEK293 Flp-In EGFP-delE TorsinA, punctate imaging, 48 h; measured here: cell count cytotoxicity
Method in brief: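 Readout: %pathology, the punctate EGFP-TorsinA distribution from imaging, as the primary channel and cell count as the toxicity counterscreen. HEK293 Flp-In cells expressing delE TorsinA were induced with tetracycline and treated with compound for 48 h.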

[2] = S16 Schwann cell PMP22 intronic element beta-lactamase assay (AID 624044); settings: S16 rat Schwann cells, PMP22 element beta-lactamase FRET, 24 h; measured here: 460 nm blue channel
Method in brief: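 Rat S16 Schwann cells with beta-Lac driven by a PMP22 intronic element, compound-treated 24 h at 37 °C. LiveBLAzer FRET B/G read: 460 nm normalized to potassium clavulanate vs DMSO; 535 nm FRET as viability; concentration-effect curves classified.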

[3] = target: Catechol O-methyltransferase (Homo sapiens) (UniProt P21964); assay: Confirmatory Screen for Target Class Profiling of Small Molecule Inhibitors of Methyltransferases (AID 1745852); settings: MTase-Glo luminescence, SAH detection, recombinant enzyme; measured here: COMT inhibition potency
[4] = target: Histamine N-methyltransferase (Homo sapiens) (UniProt P50135); assay: as above; settings: MTase-Glo luminescence, SAH detection, recombinant enzyme; measured here: HNMT inhibition potency
[5] = target: Nicotinamide N-methyltransferase (Homo sapiens) (UniProt P40261); assay: as above; settings: MTase-Glo luminescence, SAH detection, recombinant enzyme; measured here: NNMT inhibition potency
[6] = target: Phenylethanolamine N-methyltransferase (Homo sapiens) (UniProt P11086); assay: as above; settings: MTase-Glo luminescence, SAH detection, recombinant enzyme; measured here: PNMT inhibition potency
[7] = NCATS anti-infectives library activity on the primary C. elegans qHTS viability assay (AID 1745855); settings: C. elegans worm area imaging
Method in brief: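 Viability is taken from GFP fluorescence of PE254-GFP-FLuc C. elegans imaged by laser cytometry over 7 days. Ten L1 worms per well grow at 21 °C on TOP10 E. coli capsules with titrated compound; levamisole marks toxicity.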

[8] = qHTS drug screen for cell cycle checkpoint inhibitors in PARPi-resistant BRCA-mutant ovarian cancer cell lines. (AID 1963452); settings: PEO1/OlaR viability, CellTiter-Glo luminescence, 96 h
Method in brief: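 PEO1, PEO4 and PEO1/OlaR ovarian cancer cells, 600 per well, exposed 96 h at 37C to a dilution series. Viability read by CellTiter-Glo luminescence, normalized to DMSO and empty wells; activity summarized as Z-AUC.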

[9] = qHTS for identification of novel therapeutic agents for treatment of microphthalmiaassociated transcription factor (MiT) renal cell carcinoma (RCC) (AID 1963991); settings: CellTiter-Glo, 48 h; for z-score: stronger effect = lower value
Method in brief: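 Three TFE3-fusion RCC cell lines (UOK109, UOK124, UOK145), 500 cells/well, were exposed to the 1912-compound MIPE 4.0 library for 48 hours at 37 C. Viability was read by CellTiter-Glo luminescence, normalised to DMSO (100%) and empty wells (0%), with 11-concentration curve fits.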

## CCOC(=O)OC(C)OC(=O)[C@@H]1N2C(=O)[C@@H](NC(=O)[C@H](N)c3ccccc3)[C@H]2SC1(C)C (some centres not stated)
[1]
  AC50: 10 µM [falling, partial curve, poor fit]

## CCOc1cc(N)c(Cl)cc1C(=O)NCC1CN(Cc2ccc(F)cc2)CCO1 (configuration not stated)
[1]
  AC50: 1.58 µM [falling, full curve]

## Cc1cccc(C)c1NC(=O)CN(CC(=O)O)CC(=O)O
[1]
  AC50: 12.6 µM [rising, partial curve, poor fit]

## Cc1cccc(C)c1NC(=O)c1cc(S(N)(=O)=O)c(Cl)cc1O
[1]
  AC50: 6.31 µM [rising, partial curve]

## CC(C)(C)c1ccc(C(=O)CCCN2CCC(OC(c3ccccc3)c3ccccc3)CC2)cc1
[1]
  AC50: 3.98 µM [falling, full curve]

## Nc1cc(C(F)(F)F)ccc1S
[1]
  AC50: 12.6 µM [falling, single point]

## OC(C#CCN1CCCC1)(c1ccccc1)c1ccccc1
[1]
  AC50: 20 µM [falling, partial curve, poor fit]

## Cc1nc(Nc2ncc(C(=O)Nc3c(C)cccc3Cl)s2)cc(N2CCN(CCO)CC2)n1
[2]
  AC50: 6.31 µM [falling, partial curve, poor fit]
[1]
  AC50: 1.12 µM [falling, full curve]
[3]
  IC50: 24.1 µM [falling, partial curve]
[4]
  IC50: 24.1 µM [falling, partial curve]
[5]
  IC50: 24.1 µM [falling, partial curve]
[6]
  IC50: 24.1 µM [falling, partial curve]
[7]; day 7, measured here: worm number
  AC50: 0.365 µM [falling, partial curve, poor fit]
[7]; day 7, measured here: worm area, day 3
  AC50: 0.0058 µM [falling, full curve, poor fit]
[7]; day 7, measured here: worm number, day 3
  AC50: 0.916 µM [falling, partial curve, poor fit]
[8]; measured here: PEO1 parental viability
  AC50: 21.9 µM [falling, single point]
[8]; measured here: PEO4 viability
  AC50: 19.5 µM [falling, partial curve]
[9]; TFE3-RCC UOK109 viability, measured here: UOK109 Z-AUC
  z-score: -3.72
[9]; TFE3-RCC viability, measured here: UOK124 Z-AUC
  z-score: -1.9
[9]; TFE3-RCC viability, measured here: UOK145 Z-AUC
  z-score: -2.81
[9]; TFE3-RCC viability, measured here: UOK145 cell viability
  AC50: 0.0132 µM [falling, full curve]
